Reference: the supplement of paper PMC10849652
Some of the results follow.

The chains behind the UniProt entries cited, without tags or fusion partners. Where a name states a change or a piece, a line headed by the entry shows the natural chain unless it says otherwise.
UniProt Q9H425: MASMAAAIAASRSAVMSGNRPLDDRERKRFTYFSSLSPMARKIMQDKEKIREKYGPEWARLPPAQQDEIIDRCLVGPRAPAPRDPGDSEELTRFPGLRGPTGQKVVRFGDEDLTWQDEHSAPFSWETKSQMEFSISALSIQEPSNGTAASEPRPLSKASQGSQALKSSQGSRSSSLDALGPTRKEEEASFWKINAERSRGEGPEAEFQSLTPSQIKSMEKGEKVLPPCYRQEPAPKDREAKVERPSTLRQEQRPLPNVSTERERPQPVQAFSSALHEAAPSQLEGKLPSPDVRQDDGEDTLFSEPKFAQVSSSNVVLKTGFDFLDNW
UniProt Q96K31: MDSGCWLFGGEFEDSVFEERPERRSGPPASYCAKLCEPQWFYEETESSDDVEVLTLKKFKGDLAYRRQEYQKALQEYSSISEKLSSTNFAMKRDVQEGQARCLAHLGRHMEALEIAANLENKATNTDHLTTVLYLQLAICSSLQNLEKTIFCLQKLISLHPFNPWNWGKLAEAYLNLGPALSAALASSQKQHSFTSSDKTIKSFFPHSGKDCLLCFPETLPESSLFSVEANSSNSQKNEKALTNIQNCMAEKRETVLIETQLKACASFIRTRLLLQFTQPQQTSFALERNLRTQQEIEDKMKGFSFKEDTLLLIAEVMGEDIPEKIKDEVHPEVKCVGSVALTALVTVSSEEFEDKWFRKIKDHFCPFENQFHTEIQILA
UniProt Q96EU7: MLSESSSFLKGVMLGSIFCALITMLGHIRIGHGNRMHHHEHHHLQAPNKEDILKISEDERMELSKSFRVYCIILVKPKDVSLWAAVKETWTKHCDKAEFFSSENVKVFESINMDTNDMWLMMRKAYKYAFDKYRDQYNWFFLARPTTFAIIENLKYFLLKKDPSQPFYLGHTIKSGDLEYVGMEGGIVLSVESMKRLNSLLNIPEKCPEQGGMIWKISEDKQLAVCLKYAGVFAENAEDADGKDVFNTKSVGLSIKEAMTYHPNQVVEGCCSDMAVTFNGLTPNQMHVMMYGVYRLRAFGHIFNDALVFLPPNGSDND
UniProt O95873: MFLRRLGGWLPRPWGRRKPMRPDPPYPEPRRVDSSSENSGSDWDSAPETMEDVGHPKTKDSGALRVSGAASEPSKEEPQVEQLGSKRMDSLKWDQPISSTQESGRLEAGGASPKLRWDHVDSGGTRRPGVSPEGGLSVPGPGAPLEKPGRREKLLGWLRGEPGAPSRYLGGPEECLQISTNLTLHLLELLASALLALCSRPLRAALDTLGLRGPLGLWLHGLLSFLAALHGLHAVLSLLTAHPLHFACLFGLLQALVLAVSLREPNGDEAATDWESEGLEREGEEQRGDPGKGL
UniProt Q8IYL3: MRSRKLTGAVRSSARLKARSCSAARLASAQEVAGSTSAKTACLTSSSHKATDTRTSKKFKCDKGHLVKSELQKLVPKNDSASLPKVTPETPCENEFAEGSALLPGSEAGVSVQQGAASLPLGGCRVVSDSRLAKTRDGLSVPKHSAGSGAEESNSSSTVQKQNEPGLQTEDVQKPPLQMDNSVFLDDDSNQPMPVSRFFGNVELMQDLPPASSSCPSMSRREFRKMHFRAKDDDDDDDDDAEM
UniProt Q8N1A6: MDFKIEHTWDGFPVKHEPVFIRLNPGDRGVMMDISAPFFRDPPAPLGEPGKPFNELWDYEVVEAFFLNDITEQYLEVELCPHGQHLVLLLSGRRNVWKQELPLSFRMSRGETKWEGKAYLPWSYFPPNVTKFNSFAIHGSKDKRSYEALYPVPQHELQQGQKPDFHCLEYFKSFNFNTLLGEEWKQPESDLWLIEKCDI
UniProt Q8WUR7: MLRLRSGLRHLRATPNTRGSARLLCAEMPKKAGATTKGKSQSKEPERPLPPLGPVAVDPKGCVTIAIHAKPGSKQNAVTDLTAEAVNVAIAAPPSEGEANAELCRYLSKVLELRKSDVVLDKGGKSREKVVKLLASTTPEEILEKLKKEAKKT
UniProt Q6P1X6: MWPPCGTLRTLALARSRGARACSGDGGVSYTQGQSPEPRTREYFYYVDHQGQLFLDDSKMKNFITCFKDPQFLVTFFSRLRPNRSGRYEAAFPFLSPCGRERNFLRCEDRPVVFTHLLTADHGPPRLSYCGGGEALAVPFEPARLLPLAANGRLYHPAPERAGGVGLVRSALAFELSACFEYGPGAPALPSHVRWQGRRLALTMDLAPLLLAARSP
UniProt Q9Y426: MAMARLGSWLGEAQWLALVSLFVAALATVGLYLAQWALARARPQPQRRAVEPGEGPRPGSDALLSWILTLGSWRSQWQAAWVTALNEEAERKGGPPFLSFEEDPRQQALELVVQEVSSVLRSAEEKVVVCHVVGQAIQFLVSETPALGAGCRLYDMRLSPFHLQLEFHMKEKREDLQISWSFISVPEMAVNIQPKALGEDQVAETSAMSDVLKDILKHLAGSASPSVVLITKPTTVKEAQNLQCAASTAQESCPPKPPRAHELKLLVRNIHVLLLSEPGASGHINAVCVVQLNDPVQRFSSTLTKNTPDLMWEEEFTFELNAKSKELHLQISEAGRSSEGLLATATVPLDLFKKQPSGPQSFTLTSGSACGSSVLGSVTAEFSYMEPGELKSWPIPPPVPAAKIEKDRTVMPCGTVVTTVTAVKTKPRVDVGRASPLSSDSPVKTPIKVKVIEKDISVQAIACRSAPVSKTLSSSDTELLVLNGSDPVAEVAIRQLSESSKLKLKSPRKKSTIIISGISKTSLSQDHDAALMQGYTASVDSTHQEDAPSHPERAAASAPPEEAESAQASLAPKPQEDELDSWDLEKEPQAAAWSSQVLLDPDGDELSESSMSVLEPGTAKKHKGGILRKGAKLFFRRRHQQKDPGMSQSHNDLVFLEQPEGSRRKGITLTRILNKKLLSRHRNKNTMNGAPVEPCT
UniProt Q8WUQ7: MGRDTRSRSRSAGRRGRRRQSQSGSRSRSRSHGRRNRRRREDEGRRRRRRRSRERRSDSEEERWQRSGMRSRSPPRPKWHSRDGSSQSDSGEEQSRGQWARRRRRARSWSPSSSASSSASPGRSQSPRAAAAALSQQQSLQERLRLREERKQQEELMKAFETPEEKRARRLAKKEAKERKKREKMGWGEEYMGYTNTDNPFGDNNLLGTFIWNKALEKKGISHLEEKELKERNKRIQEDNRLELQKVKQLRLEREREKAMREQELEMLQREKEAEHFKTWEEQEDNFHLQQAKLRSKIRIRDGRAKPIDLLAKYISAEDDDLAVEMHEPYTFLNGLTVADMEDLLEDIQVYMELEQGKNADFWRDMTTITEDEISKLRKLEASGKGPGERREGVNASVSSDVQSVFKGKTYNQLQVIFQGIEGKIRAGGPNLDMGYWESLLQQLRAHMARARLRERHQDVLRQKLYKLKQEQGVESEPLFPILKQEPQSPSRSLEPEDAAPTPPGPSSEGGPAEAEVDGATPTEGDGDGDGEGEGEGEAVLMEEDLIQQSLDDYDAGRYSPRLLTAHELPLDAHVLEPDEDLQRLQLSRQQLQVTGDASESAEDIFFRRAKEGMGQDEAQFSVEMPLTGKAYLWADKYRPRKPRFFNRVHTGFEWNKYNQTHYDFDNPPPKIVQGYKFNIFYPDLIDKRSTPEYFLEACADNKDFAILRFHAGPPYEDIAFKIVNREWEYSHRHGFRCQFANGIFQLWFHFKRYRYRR
UniProt Q9Y376: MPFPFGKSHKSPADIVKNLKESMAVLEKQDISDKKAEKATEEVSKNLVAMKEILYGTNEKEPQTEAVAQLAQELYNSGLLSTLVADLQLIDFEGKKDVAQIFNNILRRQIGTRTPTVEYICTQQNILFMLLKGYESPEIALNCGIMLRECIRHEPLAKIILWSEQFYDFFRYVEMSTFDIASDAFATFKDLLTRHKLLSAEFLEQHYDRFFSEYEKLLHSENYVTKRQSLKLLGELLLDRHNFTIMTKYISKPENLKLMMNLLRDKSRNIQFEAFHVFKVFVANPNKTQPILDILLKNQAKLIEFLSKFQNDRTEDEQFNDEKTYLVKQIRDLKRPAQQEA
UniProt P49069: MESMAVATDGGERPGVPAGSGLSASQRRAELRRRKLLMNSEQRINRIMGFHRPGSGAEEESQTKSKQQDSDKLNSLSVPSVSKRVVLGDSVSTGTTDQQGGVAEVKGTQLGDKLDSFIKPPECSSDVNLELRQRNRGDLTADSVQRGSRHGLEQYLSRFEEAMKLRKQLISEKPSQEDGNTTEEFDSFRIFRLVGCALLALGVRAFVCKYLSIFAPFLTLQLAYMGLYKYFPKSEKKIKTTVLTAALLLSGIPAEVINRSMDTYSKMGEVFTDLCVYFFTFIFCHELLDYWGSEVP
UniProt Q86VP6: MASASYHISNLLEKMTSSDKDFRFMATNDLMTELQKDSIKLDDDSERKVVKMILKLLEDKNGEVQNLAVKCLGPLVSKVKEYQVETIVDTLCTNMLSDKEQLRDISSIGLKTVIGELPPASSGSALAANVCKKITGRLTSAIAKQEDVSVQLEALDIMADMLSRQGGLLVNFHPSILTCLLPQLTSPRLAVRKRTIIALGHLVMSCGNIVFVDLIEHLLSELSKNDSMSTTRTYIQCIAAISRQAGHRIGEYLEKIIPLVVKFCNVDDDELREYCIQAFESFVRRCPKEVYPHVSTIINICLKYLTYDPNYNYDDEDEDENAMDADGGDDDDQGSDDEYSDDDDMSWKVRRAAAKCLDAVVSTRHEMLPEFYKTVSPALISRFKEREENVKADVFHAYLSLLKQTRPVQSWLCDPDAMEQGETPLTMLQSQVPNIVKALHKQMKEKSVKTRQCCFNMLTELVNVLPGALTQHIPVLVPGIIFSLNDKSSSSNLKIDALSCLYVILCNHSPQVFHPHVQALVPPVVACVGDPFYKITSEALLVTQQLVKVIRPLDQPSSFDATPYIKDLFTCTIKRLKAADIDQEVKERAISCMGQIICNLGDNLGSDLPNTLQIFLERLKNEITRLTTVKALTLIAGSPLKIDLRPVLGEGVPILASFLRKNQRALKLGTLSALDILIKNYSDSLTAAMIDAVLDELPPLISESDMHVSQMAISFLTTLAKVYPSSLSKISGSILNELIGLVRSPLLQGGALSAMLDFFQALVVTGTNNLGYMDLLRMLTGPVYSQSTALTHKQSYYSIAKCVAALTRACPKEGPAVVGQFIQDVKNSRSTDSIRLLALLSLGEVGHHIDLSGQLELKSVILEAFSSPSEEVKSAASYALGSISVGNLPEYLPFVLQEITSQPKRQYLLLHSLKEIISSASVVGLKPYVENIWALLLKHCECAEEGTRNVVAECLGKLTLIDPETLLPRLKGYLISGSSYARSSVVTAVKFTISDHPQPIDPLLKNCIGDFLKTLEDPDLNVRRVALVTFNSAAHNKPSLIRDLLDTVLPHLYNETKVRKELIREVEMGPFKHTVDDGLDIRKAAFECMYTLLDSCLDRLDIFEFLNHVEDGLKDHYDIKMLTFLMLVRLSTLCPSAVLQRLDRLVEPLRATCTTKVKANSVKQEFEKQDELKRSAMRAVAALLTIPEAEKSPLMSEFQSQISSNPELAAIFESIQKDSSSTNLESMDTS
UniProt O43852: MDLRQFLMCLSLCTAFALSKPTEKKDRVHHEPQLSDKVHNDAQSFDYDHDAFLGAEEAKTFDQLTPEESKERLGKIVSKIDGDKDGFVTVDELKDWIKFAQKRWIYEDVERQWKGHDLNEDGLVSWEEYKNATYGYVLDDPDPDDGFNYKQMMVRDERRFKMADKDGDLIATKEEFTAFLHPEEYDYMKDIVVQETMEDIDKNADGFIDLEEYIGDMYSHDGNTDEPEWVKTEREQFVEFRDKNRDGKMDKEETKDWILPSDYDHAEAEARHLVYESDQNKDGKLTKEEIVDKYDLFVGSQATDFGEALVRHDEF
UniProt Q8WVQ1: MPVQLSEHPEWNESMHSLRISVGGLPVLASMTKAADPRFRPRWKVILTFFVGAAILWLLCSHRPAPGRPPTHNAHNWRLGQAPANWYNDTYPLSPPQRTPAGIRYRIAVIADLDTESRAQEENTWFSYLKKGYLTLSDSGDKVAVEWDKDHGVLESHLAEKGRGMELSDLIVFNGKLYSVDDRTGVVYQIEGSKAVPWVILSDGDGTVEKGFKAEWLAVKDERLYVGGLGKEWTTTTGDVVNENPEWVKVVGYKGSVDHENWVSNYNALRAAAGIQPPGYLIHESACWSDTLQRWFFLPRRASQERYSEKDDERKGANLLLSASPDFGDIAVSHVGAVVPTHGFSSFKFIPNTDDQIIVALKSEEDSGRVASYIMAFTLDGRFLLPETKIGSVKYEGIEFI
UniProt Q6UWU4: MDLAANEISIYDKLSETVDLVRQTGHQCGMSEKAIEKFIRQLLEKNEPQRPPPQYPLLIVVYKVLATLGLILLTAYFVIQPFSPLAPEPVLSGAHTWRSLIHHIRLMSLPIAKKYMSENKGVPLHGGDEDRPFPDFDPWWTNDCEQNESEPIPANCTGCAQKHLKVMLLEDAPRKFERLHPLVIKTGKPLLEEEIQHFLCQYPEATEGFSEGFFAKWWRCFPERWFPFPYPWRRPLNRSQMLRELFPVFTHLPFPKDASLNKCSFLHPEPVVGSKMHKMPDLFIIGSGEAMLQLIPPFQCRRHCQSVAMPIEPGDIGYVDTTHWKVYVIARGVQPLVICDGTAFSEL

Assays:
Assay in all cases: log2 fold change, soluble protein after heating vs DMSO (PISA); higher = thermal stabilisation; K562 cells, 10 uM, 30 min; active = over 0.2 and 3.5 SD of the protein, either way, in both replicates (recomputed)
[1] = compound: NC(=O)Nc1cc(-c2cccc(F)c2)sc1C(=O)N[C@H]1CCCNC1
Summary of the method: (§1)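 K562 cells at 2×10^6 cells/mL were exposed to 10 μM compound for 30 min, then aliquots were heated for 3 min across 48°C-58°C, pooled, and extracted in PBS containing 0.5% NP-40 at 4°C. The supernatant after 21,000xg for 90 min was taken as soluble protein and measured by TMTpro 16plex LC-MS/MS with channel sums equalised. Thermal stability is reported relative to control samples, with values from duplicates. Fold changes are given on a log2 scale.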

[2] = compound: NC(=O)c1cnc(N[C@@H]2CCCC[C@@H]2N)nc1Nc1cccc(-n2nccn2)c1
Summary of the method: as §1

[3] = compound: NC1(c2ccc(-c3nc4ccn5c(=O)[nH]nc5c4cc3-c3ccccc3)cc2)CCC1
Summary of the method: as §1

[4] = compound: NCC(=O)Nc1ccc(-n2nc(C(F)(F)F)cc2-c2ccc3c(ccc4ccccc43)c2)cc1
Summary of the method: as §1

[5] = compound: Nc1ccccc1NC(=O)c1ccc(CNC(=O)OCc2cccnc2)cc1 [entinostat]
Summary of the method: as §1

[6] = compound: O=C(CCCCCCC(=O)Nc1ccccc1)NO [vorinostat]
Summary of the method: as §1

[7] = compound: O=C(CCCCCCNC(=O)c1cnc(N(c2ccccc2)c2ccccc2Cl)nc1)NO [citarinostat]
Summary of the method: as §1

[8] = compound: O=C(O)c1ccc2c(c1)nc(Nc1cccc(Cl)c1)c1ccncc12 [silmitasertib]
Summary of the method: as §1

[9] = compound: O=C1NC(=O)C(c2cnc3ccccn23)=C1c1cn2c3c(cc(F)cc13)CN(C(=O)N1CCCCC1)CC2
Summary of the method: as §1

[10] = compound: c1cc(OCCN2CCCCC2)cc(-c2n[nH]c3ccc(-c4nnc[nH]4)cc23)c1
Summary of the method: as §1

Measured: log2 fold change

C1orf198 (UniProt Q9H425)
inactive: [1] -0.032 | [2] 0.063 | [3] -0.058 | [4] 0.027 | [5] 0.047 | [6] 0.019 | [7] 0.212 | [8] 0.04 | [9] 0.068 | [10] -0.127

C8orf76 (UniProt Q96K31)
inactive: [1] 0.148 | [2] 0.019 | [3] 0.062 | [4] 0.01 | [5] -0.024 | [6] 0.061 | [7] -0.105 | [8] -0.068 | [9] -0.06 | [10] 0.056

C1GALT1C1 (UniProt Q96EU7)
inactive: [1] -0.052 | [2] 0.04 | [3] -0.046 | [4] -0.118 | [5] -0.026 | [6] -0.042 | [7] 0.023 | [8] 0.018 | [9] -0.007 | [10] -0.072

C6orf47 (UniProt O95873)
inactive: [1] -0.028 | [2] -0.031 | [3] -0.041 | [4] 0.003 | [5] -0.008 | [6] -0.092 | [7] 0.045 | [8] 0.022 | [9] -0.055 | [10] -0.012

BTBD6 (UniProt Q96KE9)
inactive: [1] 0.054 | [2] 0.102 | [3] 0.469 | [4] 0.199 | [5] -0.039 | [6] 0.081 | [7] 0.273 | [8] -0.352 | [9] -0.011 | [10] 0.118

BYSL (UniProt Q13895)
inactive: [1] -0.012 | [2] 0.053 | [3] -0.052 | [4] 0.062 | [5] 0.046 | [6] 0.058 | [7] -0.007 | [8] 0.085 | [9] 0.068 | [10] 0.001

C2orf49 (UniProt Q9BVC5)
inactive: [1] 0.388 | [2] 0.149 | [3] 0.02 | [4] 0.033 | [5] 0.041 | [6] 0.055 | [7] 0.006 | [8] 0.191 | [9] 0.297 | [10] -0.09

C18orf25 isoform 2 (UniProt Q96B23)
inactive: [1] 0.101 | [2] -0.055 | [3] -0.038 | [4] 0.034 | [5] -0.013 | [6] 0.249 | [7] 0.039 | [8] 0.033 | [9] 0.097 | [10] -0.064

C19orf53 (UniProt Q9UNZ5)
inactive: [1] 0.136 | [2] 0.061 | [3] 0.279 | [4] 0.177 | [5] -0.026 | [6] -0.051 | [7] -0.105 | [8] 0.123 | [9] 0.214 | [10] -0.155

C8orf33 isoform 2 (UniProt Q9H7E9)
inactive: [1] 0.119 | [2] 0.218 | [3] 0.436 | [4] 0.298 | [5] -0.007 | [6] -0.025 | [7] -0.1 | [8] 0.423 | [9] 0.26 | [10] -0.144

C1orf174 (UniProt Q8IYL3)
inactive: [1] -0.036 | [2] -0.11 | [3] 0.005 | [4] 0.049 | [5] -0.042 | [6] -0.067 | [7] -0.028 | [8] -0.002 | [9] 0.108 | [10] 0.125

C4orf33 (UniProt Q8N1A6)
inactive: [1] 0.152 | [2] -0.003 | [3] -0.218 | [4] -0.061 | [5] -0.156 | [6] -0.05 | [7] 0 | [8] -0.126 | [9] 0.019 | [10] -0.063

C15orf40 (UniProt Q8WUR7)
inactive: [1] -0.043 | [2] -0.045 | [3] 0.021 | [4] 0.052 | [5] -0.053 | [6] 0.004 | [7] -0.049 | [8] 0.049 | [9] -0.182 | [10] -0.067

C8orf82 (UniProt Q6P1X6)
inactive: [1] 0.004 | [2] 0.128 | [3] -0.031 | [4] -0.005 | [5] 0.022 | [6] -0.031 | [7] 0.034 | [8] 0.028 | [9] -0.037 | [10] 0.017

C2CD2 (UniProt Q9Y426)
inactive: [1] -0.166 | [2] 0.007 | [3] 0.174 | [4] 0.028 | [5] 0.025 | [6] 0.004 | [7] 0.043 | [8] -0.067 | [9] 0.033 | [10] -0.016

CACTIN isoform 2 (UniProt Q8WUQ7)
inactive: [1] 0.04 | [2] -0.008 | [3] -0.054 | [4] -0.155 | [5] 0.006 | [6] -0.021 | [7] 0 | [8] -0.18 | [9] -0.001 | [10] -0.175

C9orf78 (UniProt Q9NZ63)
inactive: [1] 0.048 | [2] -0.009 | [3] 0.029 | [4] 0.017 | [5] -0.008 | [6] -0.062 | [7] -0.015 | [8] -0.028 | [9] -0.006 | [10] 0.027

CAB39 (UniProt Q9Y376)
inactive: [1] -0.026 | [2] 0.007 | [3] -0.006 | [4] 0.034 | [5] -0.024 | [6] -0.008 | [7] 0.03 | [8] -0.016 | [9] -0.056 | [10] -0.012

CAMLG (UniProt P49069)
inactive: [1] 0.021 | [2] -0.011 | [3] 0.034 | [4] 0.022 | [5] -0.004 | [6] -0.122 | [7] 0.124 | [8] 0.014 | [9] 0.017 | [10] -0.148

CAMK2G isoform 6 (UniProt Q13555)
inactive: [1] -0.306 | [2] -0.033 | [3] 0.038 | [4] 0.057 | [5] 0.119 | [6] 0.119 | [7] -0.02 | [8] 0.158 | [9] 0.177 | [10] -0.053

CAPN2 (UniProt P17655)
inactive: [1] -0.013 | [2] -0.011 | [3] -0.077 | [4] 0.027 | [5] -0.018 | [6] 0.002 | [7] -0.005 | [8] -0.02 | [9] -0.018 | [10] 0.036

CAND1 (UniProt Q86VP6)
inactive: [1] 0.009 | [2] 0.014 | [3] -0.049 | [4] 0.024 | [5] -0.008 | [6] 0.008 | [7] 0.041 | [8] -0.024 | [9] -0.011 | [10] -0.012

CALU isoform 4 (UniProt O43852)
inactive: [1] -0.019 | [2] -0.008 | [3] -0.016 | [4] -0.047 | [5] -0.019 | [6] -0.034 | [7] 0.034 | [8] -0.008 | [9] -0.017 | [10] -0.032

BUD31 (UniProt P41223)
inactive: [1] -0.037 | [2] 0.067 | [3] 0.077 | [4] -0.034 | [5] 0.022 | [6] -0.014 | [7] -0.025 | [8] -0.05 | [9] -0.052 | [10] -0.054

C2orf69 (UniProt Q8N8R5)
inactive: [1] 0.042 | [2] -0.085 | [3] -0.027 | [4] 0.023 | [5] -0.055 | [6] 0.056 | [7] 0.109 | [8] -0.031 | [9] 0.008 | [10] -0.028

CAMKK2 (UniProt Q96RR4)
inactive: [1] -0.088 | [2] -0.389 | [3] -0.113 | [4] -0.047 | [5] 0.015 | [6] 0.323 | [7] -0.144 | [8] 0.128 | [9] -0.038 | [10] 0.036

CANT1 (UniProt Q8WVQ1)
inactive: [1] -0.034 | [2] -0.023 | [3] -0.048 | [4] -0.004 | [5] 0.033 | [6] 0.008 | [7] 0 | [8] 0.031 | [9] -0.043 | [10] 0.059

C18orf25 (UniProt Q96B23)
inactive: [1] 0.036 | [2] 0.086 | [3] -0.015 | [4] 0.007 | [5] -0.021 | [6] 0.007 | [7] 0.027 | [8] -0.014 | [9] -0.091 | [10] 0.033

Random excerpt: 2 records from the list.
CANT1 (UniProt Q8WVQ1)
inactive: [1] -0.034 | [2] -0.023 | [3] -0.048 | [4] -0.004 | [5] 0.033 | [6] 0.008 | [7] 0 | [8] 0.031 | [9] -0.043 | [10] 0.059

CAMKK2 (UniProt Q96RR4)
inactive: [1] -0.088 | [2] -0.389 | [3] -0.113 | [4] -0.047 | [5] 0.015 | [6] 0.323 | [7] -0.144 | [8] 0.128 | [9] -0.038 | [10] 0.036

(cont.)

C6orf89 isoform 2 (UniProt Q6UWU4)
inactive: [1] -0.056 | [2] -0.072 | [3] 0.016 | [4] -0.006 | [5] -0.036 | [6] -0.017 | [7] 0.024 | [8] 0.025 | [9] -0.021 | [10] -0.017
